Data as given in PubChem BioAssay AID1224826 (NIAID, 2016).
Aim: 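Genes that change LPS-induced Tnf promoter activity in mouse macrophages when knocked down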 (primary screen). Cells: RAW264.7 G9 macrophages from mouse bearing reporters for p65 (GFP) and the Tnf promoter (mCherry). Reagent: siRNA pool against mouse genes, 100 nM. Time to read-out: 16 h of LPS stimulation, after 2 days of siRNA transfection. Challenge: bacterial lipopolysaccharide (Salmonella minnesota R595), 10 ng/ml. Measured: 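Nuclear mCherry signal of the Tnf promoter reporter measured by imaging after background removal, scaled to each plate median and turned into robust z-scores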. Direction: Tnf reporter robust z-score: higher = stronger Tnf promoter reporter signal after LPS. Hit rule: 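Called active when robust z-score is at most -1.3, matching the median of the Tlr4 knock-down control, or over 3; control wells and wells with under 50 cells never active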. Calls: active = Tnf reporter clearly lowered or raised; inactive = no clear change in Tnf reporter.
Here is a random part of about 17,000 reagents. About 1,110 of all reagents (6.6%) count as active. 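Active means lowered or raised reporter signal; replicate intensities are raw and not normalised per plate.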 Further read-outs or replicates are left out here. No sequences are given here.

gene	Tnf reporter robust z-score	fewer than 50 cells in well	call
Dus1l	1.94	enough cells in well	inactive
Mrps34	0.81	enough cells in well	inactive
Tpd52l2	-1.52	enough cells in well	active
Cd6	0.55	enough cells in well	inactive
Pcdhb22	-0.54	enough cells in well	inactive
Syt17	1.63	enough cells in well	inactive
Ntrk3	0.33	enough cells in well	inactive
Cyp2c54	1.04	enough cells in well	inactive
Ssr1	-0.36	enough cells in well	inactive
Emc8	0.99	enough cells in well	inactive
Or8g26	-1.21	enough cells in well	inactive
Aloxe3	-0.4	enough cells in well	inactive
Tpk1		fewer than 50 cells per well; well left out of calls	inactive
Foxn3	0.17	enough cells in well	inactive
Recql4	0.31	enough cells in well	inactive
Or10a3	-0.73	enough cells in well	inactive
Or6k4	1.9	enough cells in well	inactive
Slc5a7	-1.59	enough cells in well	active
Cfap184	0.44	enough cells in well	inactive
Cnr2	1.04	enough cells in well	inactive
Tescl		fewer than 50 cells per well; well left out of calls	inactive
Sstr1	-0.14	enough cells in well	inactive
Kcnd2	0.21	enough cells in well	inactive
Cyp21a1	-0.61	enough cells in well	inactive
Thrb	-0.75	enough cells in well	inactive
5330438D12Rik	0.01	enough cells in well	inactive
Tpp1	3.8	enough cells in well	active
Slc5a9	-0.79	enough cells in well	inactive
Defb37	-1.36	enough cells in well	active

Reagents above marked active:
gene	Tnf reporter robust z-score	fewer than 50 cells in well	call
Tpd52l2	-1.52	enough cells in well	active
Slc5a7	-1.59	enough cells in well	active
Tpp1	3.8	enough cells in well	active
Defb37	-1.36	enough cells in well	active

The list goes on:
gene	Tnf reporter robust z-score	fewer than 50 cells in well	call
Plaat5	3.54	enough cells in well	active
Tarm1	0.43	enough cells in well	inactive
Tnfrsf1a	-1.48	enough cells in well	active
Dhx57	0.37	enough cells in well	inactive
Nit2	-0.18	enough cells in well	inactive
Snap23	-0.2	enough cells in well	inactive
C1qb	-0.81	enough cells in well	inactive
Anxa3	-0.46	enough cells in well	inactive
Kdm1b	0.96	enough cells in well	inactive
Anapc7	2.38	enough cells in well	inactive
Hbegf	-0.7	enough cells in well	inactive
Ugt1a1	-0.69	enough cells in well	inactive
Art5	0.06	enough cells in well	inactive
Adamts19	1.33	enough cells in well	inactive
Or4m1		fewer than 50 cells per well; well left out of calls	inactive
Mgat5b	-0.69	enough cells in well	inactive
Add1	1.42	enough cells in well	inactive
Ormdl2	1.3	enough cells in well	inactive
Mc5r	0.63	enough cells in well	inactive
Txndc17	1.9	enough cells in well	inactive
Golga1	0.18	enough cells in well	inactive
Nop9	1.73	enough cells in well	inactive
Wrn	-0.71	enough cells in well	inactive
Cyba	-0.2	enough cells in well	inactive
Liph	-1.26	enough cells in well	inactive
Creb3l1	-1.29	enough cells in well	inactive
Syt8		fewer than 50 cells per well; well left out of calls	inactive
Or5b121	0.44	enough cells in well	inactive
Igsf11	-1.22	enough cells in well	inactive
